According to patent US20040219615A1:
These are yes or no findings as the source states them, for the method shown. Some binding calls cover weakened binding; strength is not graded here.

Amino acid sequences for entries named in this document (tags omitted). A change or cut given only in a name is not applied to a line headed by its entry.
UniProt Q9Y6K9: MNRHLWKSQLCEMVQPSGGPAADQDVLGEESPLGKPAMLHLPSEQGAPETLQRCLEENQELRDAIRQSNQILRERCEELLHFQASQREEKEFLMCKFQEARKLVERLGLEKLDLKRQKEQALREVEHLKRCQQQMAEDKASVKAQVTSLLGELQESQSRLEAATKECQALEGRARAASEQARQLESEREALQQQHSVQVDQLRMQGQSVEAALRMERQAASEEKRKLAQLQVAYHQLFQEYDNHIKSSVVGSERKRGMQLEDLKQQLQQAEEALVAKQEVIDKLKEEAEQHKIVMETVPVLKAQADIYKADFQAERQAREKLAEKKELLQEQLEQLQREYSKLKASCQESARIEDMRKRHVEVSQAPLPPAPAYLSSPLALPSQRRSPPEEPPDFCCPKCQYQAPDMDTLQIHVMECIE

How the values were obtained:
[1] = target: RAP-2 (RIP-associated protein-2), full-length (human) (UniProt Q9Y6K9); assay: yeast two-hybrid test
[2] = target: RAP-2 (RIP-associated protein-2), full-length (human) (UniProt Q9Y6K9); assay: yeast two-hybrid screen of the B-cell cDNA library, full-length RAP-2 as bait

B1: clone #84 (protein, UniProt Q99675 1-332, looked up)
chain: MAAVFLVTLYEYSPLFYIAVVFTCFIVTTGLVLGWFGWDVPVILRNSEETQFSTRVFKKQMRQVKNPFGLEITNPSSASITTGITLTTDCLEDSLLTCYWGCSVQKLYEALQKHVYCFRISTPQALEDALYSEYLYQEQYFIKKDSKEEIYCQLPRDTKIEDFGTVPRSRYPLVALLTLADEDDREIYDIISMVSVIHIPDRTYKLSCRILYQYLLLAQGQFHDLKQLFMSANNNFTPSNNSSSEEKNTDRSLLEKVGLSESEVEPSEENSKDCVVCQNGTVNWVLLPCRHTCLCDGCVKYFQQCPMCRQFVQESFALCSQKEQDKDKPKTL
With B1 the binding [1] was “binds” and the binding [2] was “binds”.
